Reference: PMC8552724

System: T1, AbrB
T1 sequence (looked up): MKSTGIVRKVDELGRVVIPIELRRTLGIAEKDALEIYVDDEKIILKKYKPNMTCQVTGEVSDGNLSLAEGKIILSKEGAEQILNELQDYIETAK
Assay: EMSA
Conditions: poly(dI:dC); recombinant protein; residues 1-94; protein details: His-tag (pET21b, BamHI/SalI); label: FAM; probe letters rebuilt from the primers and the genome

## CAGCTATAACATATGATGGAAGAGAAATACCAGTGTATTCATCCAAATGGCCATTCAACAAATGAAAATGGCATAAGAATTTAAAAAATAAATAATATGGAATGGATACCATTTAAATGCTTACATTTCTTATATAAATCAAAAAACATTCACAAGTTGTCCATGTTAATTTACAAAAAGAGGTGTGAGCAAGTAATATAATGATCAATGTGGTACATGAATCGTGATCAAGTACAATAAACAATAACTACATTTCAGGTGTTTTGGTATATTTTTATAATGCCAAAACACCTTTTTGTGAAAATGGATTTTTTTAAGGTCACTTTTAAA (double strand) [Psip1Ab1-F (-531 to -202)]
  binding result: binds

Tags and fusion partners may be left off the protein sequences shown.
